Laboratory results reported in patent US20220118089A1 (UNIVERSITY OF CHICAGO, published 2022).
Results are given in words; binding and its absence hold for the method and conditions named. Some results given as binding are weak or reduced against the parent protein; the word gives no strength. Tags and fused reporters may be left off the sequences shown.

Sequences of proteins named here, by UniProt entry; tags and fusion partners are left off. A change or cut given only in a name is not applied to a line headed by its entry. Residues count along the entry.
UniProt P02461, residues 154-1221: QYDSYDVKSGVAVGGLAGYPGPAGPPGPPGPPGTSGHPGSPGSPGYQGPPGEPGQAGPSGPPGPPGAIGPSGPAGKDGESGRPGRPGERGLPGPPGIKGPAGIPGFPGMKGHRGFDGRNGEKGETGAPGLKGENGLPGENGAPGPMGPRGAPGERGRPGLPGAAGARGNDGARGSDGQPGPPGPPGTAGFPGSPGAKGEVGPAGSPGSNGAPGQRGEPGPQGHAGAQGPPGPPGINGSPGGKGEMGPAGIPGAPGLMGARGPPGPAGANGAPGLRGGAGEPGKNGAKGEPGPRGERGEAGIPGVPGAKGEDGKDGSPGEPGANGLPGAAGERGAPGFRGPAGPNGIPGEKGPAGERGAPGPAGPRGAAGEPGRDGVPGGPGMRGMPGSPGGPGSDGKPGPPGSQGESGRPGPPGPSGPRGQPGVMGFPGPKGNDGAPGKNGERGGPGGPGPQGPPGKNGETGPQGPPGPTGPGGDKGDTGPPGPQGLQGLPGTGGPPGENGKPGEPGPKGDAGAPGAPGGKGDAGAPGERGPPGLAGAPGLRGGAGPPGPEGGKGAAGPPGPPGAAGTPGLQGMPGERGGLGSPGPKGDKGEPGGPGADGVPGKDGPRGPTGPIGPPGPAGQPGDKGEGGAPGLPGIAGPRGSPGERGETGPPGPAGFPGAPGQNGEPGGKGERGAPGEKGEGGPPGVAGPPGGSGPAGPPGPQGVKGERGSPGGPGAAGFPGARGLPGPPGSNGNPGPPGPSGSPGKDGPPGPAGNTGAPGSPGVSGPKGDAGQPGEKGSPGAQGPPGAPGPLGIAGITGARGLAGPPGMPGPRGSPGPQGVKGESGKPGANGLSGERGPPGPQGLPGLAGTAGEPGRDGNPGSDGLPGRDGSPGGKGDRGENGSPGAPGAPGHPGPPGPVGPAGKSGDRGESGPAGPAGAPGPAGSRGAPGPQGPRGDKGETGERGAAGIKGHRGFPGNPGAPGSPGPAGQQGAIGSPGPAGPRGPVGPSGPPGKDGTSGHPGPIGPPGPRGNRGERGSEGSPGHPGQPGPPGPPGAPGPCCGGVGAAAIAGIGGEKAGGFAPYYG
UniProt P02452: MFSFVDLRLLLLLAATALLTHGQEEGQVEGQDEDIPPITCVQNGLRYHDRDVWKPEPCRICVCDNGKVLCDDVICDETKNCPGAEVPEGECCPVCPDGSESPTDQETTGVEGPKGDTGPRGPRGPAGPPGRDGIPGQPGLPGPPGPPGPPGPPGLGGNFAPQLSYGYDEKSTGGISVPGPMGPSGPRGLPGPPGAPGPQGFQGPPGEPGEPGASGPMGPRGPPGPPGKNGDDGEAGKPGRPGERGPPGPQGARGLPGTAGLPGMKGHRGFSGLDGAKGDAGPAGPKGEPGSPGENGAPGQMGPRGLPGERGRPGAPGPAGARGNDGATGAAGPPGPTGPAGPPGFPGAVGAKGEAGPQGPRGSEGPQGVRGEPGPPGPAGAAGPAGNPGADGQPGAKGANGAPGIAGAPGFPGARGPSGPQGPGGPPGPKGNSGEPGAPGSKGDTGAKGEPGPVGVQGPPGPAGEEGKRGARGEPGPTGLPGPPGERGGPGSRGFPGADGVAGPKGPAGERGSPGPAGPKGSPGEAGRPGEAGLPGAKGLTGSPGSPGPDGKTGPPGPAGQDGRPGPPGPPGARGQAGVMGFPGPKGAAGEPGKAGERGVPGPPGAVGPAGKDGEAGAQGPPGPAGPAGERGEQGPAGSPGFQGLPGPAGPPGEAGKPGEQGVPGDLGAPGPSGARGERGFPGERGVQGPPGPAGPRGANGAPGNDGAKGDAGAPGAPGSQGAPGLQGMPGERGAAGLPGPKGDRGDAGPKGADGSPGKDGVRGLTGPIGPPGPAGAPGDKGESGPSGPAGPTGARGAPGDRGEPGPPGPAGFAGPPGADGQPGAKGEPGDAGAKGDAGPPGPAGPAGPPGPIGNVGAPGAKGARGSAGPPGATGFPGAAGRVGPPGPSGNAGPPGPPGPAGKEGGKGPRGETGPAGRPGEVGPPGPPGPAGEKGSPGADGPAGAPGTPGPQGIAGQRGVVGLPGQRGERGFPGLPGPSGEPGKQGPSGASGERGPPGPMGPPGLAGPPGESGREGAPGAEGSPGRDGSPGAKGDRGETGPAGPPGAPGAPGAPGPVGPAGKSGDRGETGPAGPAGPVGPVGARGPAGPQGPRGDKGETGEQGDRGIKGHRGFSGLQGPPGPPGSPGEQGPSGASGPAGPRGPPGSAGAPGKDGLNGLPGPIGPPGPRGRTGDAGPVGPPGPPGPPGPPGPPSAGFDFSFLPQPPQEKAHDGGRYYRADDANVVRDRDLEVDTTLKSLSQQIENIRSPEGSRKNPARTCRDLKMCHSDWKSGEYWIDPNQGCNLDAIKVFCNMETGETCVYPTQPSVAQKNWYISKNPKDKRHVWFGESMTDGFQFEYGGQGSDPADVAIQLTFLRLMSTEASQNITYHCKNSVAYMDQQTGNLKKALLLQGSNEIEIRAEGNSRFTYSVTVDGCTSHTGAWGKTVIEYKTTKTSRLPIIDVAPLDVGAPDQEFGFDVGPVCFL

What was measured:
[1] = target: human type III collagen (Millipore Sigma) (human) (UniProt P02461); experiment: SPR (FIG. 14B)
[2] = target: T1, human type I collagen (Millipore Sigma) (human, UniProt P02452 162-1218; P08123 80-1119); experiment: SPR (FIG. 14B)
T1 construct: treated as one molecule; also called collagen type I

[3] = target: human type III collagen (Millipore Sigma) (human) (UniProt P02461); experiment: SPR, collagen immobilised
[4] = target: T1, human type I collagen (Millipore Sigma); experiment: SPR, collagen immobilised

Measured: binding

B1: Human VWF A3 domain (CBD), mouse serum albumin and mouse IL-10 fusion protein (other)
chain: CSQPLDVVLLLDGSSSLPESSFDKMKSFAKAFISKANIGPHLTQVSVIQYGSINTIDVPWNVVQEKAHLQSLVDLMQQEGGPSQIGDALAFAVRYVTSQIHGARPGASKAVVIIIMDTSLDPVDTAADAARSNRVAVFPVGVGDRYDEAQLRILAGPGASSNVVKLQQVEDLSTMATLGNSFFHKLCSGFSGVGGGSGGGSEAHKSEIAHRYNDLGEQHFKGLVLIAFSQYLQKCSYDEHAKLVQEVTDFAKTCVADESAANCDKSLHTLFGDKLCAIPNLRENYGELADCCTKQEPERNECFLQHKDDNPSLPPFERPEAEAMCTSFKENPTTFMGHYLHEVARRHPYFYAPELLYYAEQYNEILTQCCAEADKESCLTPKLDGVKEKALVSSVRQRMKCSSMQKFGERAFKAWAVARLSQTFPNADFAEITKLATDLTKVNKECCHGDLLECADDRAELAKYMCENQATISSKLQTCCDKPLLKKAHCLSEVEHDTMPADLPAIAADFVEDQEVCKNYAEAKDVFLGTFLYEYSRRHPDYSVSLLLRLAKKYEATLEKCCAEANPPACYGTVLAEFQPLVEEPKNLVKTNCDLYEKLGEYGFQNAILVRYTQKAPQVSTPTLVEAARNLGRVGTKCCTLPEDQRLPCVEDYLSAILNRVCLLHEKTPVSEHVTKCCSGSLVERRPCFSALTVDETYVPKEFKAETFTFHSDICTLPEKEKQIKKQTALAELVKHKPKATAEQLKTVMDDFAQFLDTCCKAADKDTCFSTEGPNLVTRCKDALAGGGSGGGSSRGQYSREDNNCTHFPVGQSHMLLELRTAFSQVKTFFQTKDQLDNILLTDSLMQDFKGYLGCQALSEMIQFYLVEVMPQAEKHGPEIKEHLNSLGEKLKTLRMRLRRCHRFLPCENKSKAVEQVKSDFNKLQDQGVYKAMNEFDIFINCIEAYMMIKMKSHHHHHH
notes: also called CBD-SA-IL-10; CBD-SA-fused IL-10
binds: all assays above
